# Assay results reported in US7273614B2 (priority 1993, dated 2007).
# Some results were stated once for a whole list of compounds, not compound by compound.
# System: RSV
# Assay: Anti-RSV antiviral activity assays (syncytial formation, HEp2 cells)
# Type: cell-based, respiratory syncytial virus
# Details: purified peptides; FIGS. 27, 28
row,Substance,anti-RSV antiviral activity (in words)
1,T-334: SEQ ID NO. 123; RSV F2 DP178/DP107-like region peptide (AFIRKSDELLHNV),detectable levels of antiviral activity
2,T-665: SEQ ID NO. 143; RSV F1 DP178-like region peptide (FDASISQVNEKINQSLAFIRKSDELLHNVNAGK),potent anti-viral activity
3,T-671: SEQ ID NO. 144; RSV F1 DP178-like region peptide (ASISQVNEKINQSLAFIRKSDELLHNVNAGKST),potent anti-viral activity
